## Primary screen of a compound library

Sequences of proteins named here, by UniProt entry; tags and fusion partners are left off. Residues count along the entry.
UniProt P9WPC5, whole entry: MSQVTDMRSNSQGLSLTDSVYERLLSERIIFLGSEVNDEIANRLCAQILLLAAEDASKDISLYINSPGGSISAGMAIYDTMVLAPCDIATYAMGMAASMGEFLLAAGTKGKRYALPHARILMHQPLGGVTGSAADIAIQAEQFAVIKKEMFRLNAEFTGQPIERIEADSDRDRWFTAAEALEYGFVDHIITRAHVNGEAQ
UniProt P9WPC3, whole entry partner: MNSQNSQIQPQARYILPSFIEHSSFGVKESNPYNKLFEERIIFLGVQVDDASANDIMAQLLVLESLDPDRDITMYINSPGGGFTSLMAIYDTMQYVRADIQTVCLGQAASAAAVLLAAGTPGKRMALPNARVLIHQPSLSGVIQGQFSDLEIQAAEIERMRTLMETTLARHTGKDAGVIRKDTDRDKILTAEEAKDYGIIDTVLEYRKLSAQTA
UniProt P9WNZ1, whole entry: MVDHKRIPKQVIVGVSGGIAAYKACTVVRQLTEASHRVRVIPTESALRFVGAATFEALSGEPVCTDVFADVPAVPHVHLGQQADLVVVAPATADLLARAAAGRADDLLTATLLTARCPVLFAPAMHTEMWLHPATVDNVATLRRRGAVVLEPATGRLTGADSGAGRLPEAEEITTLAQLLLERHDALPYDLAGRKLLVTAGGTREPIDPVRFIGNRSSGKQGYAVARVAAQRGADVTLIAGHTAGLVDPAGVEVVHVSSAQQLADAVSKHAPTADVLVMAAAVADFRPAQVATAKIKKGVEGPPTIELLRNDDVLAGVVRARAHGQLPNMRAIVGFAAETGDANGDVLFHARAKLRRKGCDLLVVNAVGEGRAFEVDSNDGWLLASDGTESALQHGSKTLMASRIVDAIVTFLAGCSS
UniProt A4I591, 1-473: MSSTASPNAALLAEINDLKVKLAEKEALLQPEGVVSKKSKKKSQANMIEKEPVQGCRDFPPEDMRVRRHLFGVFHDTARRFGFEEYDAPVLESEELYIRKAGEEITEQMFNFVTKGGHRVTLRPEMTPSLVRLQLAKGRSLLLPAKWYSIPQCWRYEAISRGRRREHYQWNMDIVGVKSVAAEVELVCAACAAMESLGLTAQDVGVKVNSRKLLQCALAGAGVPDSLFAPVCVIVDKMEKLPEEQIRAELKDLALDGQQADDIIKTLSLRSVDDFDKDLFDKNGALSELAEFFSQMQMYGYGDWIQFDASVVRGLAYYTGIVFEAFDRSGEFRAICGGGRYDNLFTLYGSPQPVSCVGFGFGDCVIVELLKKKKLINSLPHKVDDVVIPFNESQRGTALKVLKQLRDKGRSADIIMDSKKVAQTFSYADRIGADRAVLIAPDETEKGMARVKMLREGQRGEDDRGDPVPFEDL

From ChEMBL document CHEMBL3988442, “University of Dundee, Small-Polar-MMV Screening Library” (2021).

Values are the deposited “Percent Effect”, in %.
The record does not define 0% and 100%; most values in the screen are far below 50% and negative numbers occur (in some assays of this library far below -100).
This is an unselected part of the compounds tested.
A dash means the value is not listed here; it may have been measured.

A: 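Protease assay of ClpP1P2, read by the AMC dye that it sets free. Target: ClpP1P2, Mycobacterium tuberculosis (UniProt P9WPC5 and UniProt P9WPC3). Compounds at 50 µM. Direction is inferred from only a few compounds that gave an IC50; most scored high, so higher reads as stronger inhibition. Most other retested compounds had strongly negative values. Size under these conditions: about 69,000 compounds, about 10 of them at 50% or above in at least one test.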
B: 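Enzyme assay of CoaBC with a phosphate dye (Biomol Green) read at 650 nm. Target: Coenzyme A biosynthesis protein CoaBC, Mycobacterium tuberculosis (UniProt P9WNZ1). Concentration: 30 µM. Direction is inferred from only a few compounds that gave an IC50; most scored high, so higher reads as stronger inhibition. Most strong results did not repeat in a second test. Size under these conditions: about 67,000 compounds, about 40 of them at 50% or above in at least one test.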
C: 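Cell assay of Leishmania donovani living inside macrophages; the read-out is not stated. Compounds at 30 µM. The record gives no direction; compounds that gave an IC50 in retests scored well above the rest, so higher reads as stronger inhibition. Of about 69,000 compounds tested this way, about 1,000 (1.5%) reached 50% or more in at least one test.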
D: 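Enzyme assay of histidyl-tRNA synthetase; the read-out is not stated. Target: Histidine-tRNA ligase, Leishmania infantum (UniProt A4I591). Concentration: 30 µM. The record gives no direction; compounds that gave an IC50 in retests scored well above the rest, so higher reads as stronger inhibition. The assay is labelled LdHisRS but filed under L. infantum. Of about 69,000 compounds tested this way, about 410 (0.6%) reached 50% or more in at least one test.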

| compound | A | B | C | D |
|---|---|---|---|---|
| `CCc1nc(CNC(C)c2cccc(N3CCCC3=O)c2)cs1.Cl` (stereo not drawn) | - | - | 13.2 | - |
| `O=C(C1CCOCC1)N1CC[C@@H]2[C@H]1CCC(=O)N2c1ccccc1` | -3.168 | 7.943 | - | 23.68 |
| `Cc1cccc(NC2CCN(C(=O)Nc3cccc4[nH]ccc34)CC2)n1` | -0.6682 | 0.5141 | 40.33 | 12.36 |
| `Cc1nc2c(C(=O)O)cccc2n1-c1ccc(C(=O)N2CCCC2)o1` | -1.639 | -2.675 | 16.92 | 29.03 |
| `Cl.NCc1ccc(OC(F)F)cc1OC(F)F` | - | - | -8.269 | - |
| `Cc1cc(CNC2(c3ccccc3F)CC2)no1` | 5.617 | 7.589 | -20.5 | -1.042 |
| `CCn1nc(C)c(NC(=O)CN2CC[C@H](CO)[C@@H](O)C2)c1C` | -7.519 | 12.32 | 10.48 | 13.11 |
| `NC(=O)C1CN(C(=O)Nc2ccccc2SC2CCCC2)CCO1` (stereo not drawn) | -11.59 | 3.728 | 20.25 | 7.143 |
| `CCOC(C)C(=O)Nc1ccc(Sc2nncn2C)c(Cl)c1` (stereo not drawn) | -6.606 | 2.418 | -5.09 | -5.714 |
| `CC(C)c1nn(C)c(N(C)C)c1CNC1CCCOc2ccccc21` (stereo not drawn) | -1.741 | 6.59 | 11.28 | 1.786 |
| `COc1cccc([C@H]2CN(C(=O)c3nnc4n3CCCC4)C[C@@H]2N)c1` | -21.7 | -0.1242 | 18.74 | 10.83 |
| `CC(Cn1ccnc1)NC(=O)NCCNC(=O)C(C)C` (stereo not drawn) | 27.06 | 6.117 | 6.974 | 44 |
| `CN1CCN(C(=O)c2nc3c(o2)CN(C(=O)c2cccnc2)C3)CC1` | -15.53 | 1.364 | - | 10.38 |
| `Cc1nc(Cn2nc(C3CCNCC3)n(Cc3ccccc3)c2=O)no1` | 8.244 | -21.54 | -1.312 | 3.846 |
| `CNC(=O)Nc1cnc2cc(Cl)ccc2c1O` | -2.043 | -3.676 | -3.595 | -5.208 |
| `CCc1cnc(CCNS(C)(=O)=O)s1` | -7.129 | 0.4819 | -53.27 | 7.692 |
| `CCN(CC(=O)NC(C)C)S(=O)(=O)N1CCCCC1C` (stereo not drawn) | 3.693 | 4.142 | 3.618 | 12.12 |
| `Cc1cc(N(C)CC2COc3ccccc3O2)nc(N)n1` (stereo not drawn) | -10.08 | 1.106 | 51.06 | 15.5 |
| `Cl.O=C(O)C1(Cc2cccc(-c3cccs3)c2)CCCNC1` (stereo not drawn) | - | - | 29.13 | - |
| `Cn1cc(CNC2CCOCC2)c(-c2cc3ccccc3o2)n1` | 2.614 | 1.985 | 19.85 | 14.89 |
| `COCC(=O)N1CCOCC2(CCN(Cc3cccs3)C2)C1.O=C(O)C(F)(F)F` (stereo not drawn) | - | - | -15.52 | - |
| `CN(CCC(F)(F)F)C(=O)C1CCCN1C(=O)OC(C)(C)C` (stereo not drawn) | -2.591 | -5.33 | 9.522 | 0 |
| `Cn1cc(S(=O)(=O)N(Cc2ccc(F)cc2F)C2CC2)cc1C(N)=O` | 9.529 | -0.5964 | 34.27 | 17.33 |
| `[H][C@@]12CS(=O)(=O)C[C@]1([H])N(C(=O)c1ccc3c(c1)OCC(=O)N3)CCN2CC` | - | - | 12.16 | - |
| `CCc1nc(C)c(C(=O)NCCNc2cnccn2)s1` | 13.16 | 1.836 | 10.37 | 37.88 |
| `O=C(O)C(F)(F)F.[H][C@@]12CCN(c3cccnc3)C[C@]1([H])CN(C(=O)c1ccco1)C2` | - | - | 16.56 | - |
| `Cn1nccc1C(=O)N1CCCC1c1ccc(C(=O)N2CCOCC2)s1` (stereo not drawn) | -14.58 | 3.271 | -5.007 | 14.47 |
| `O=C(O)CC(O)(CC(=O)O)C(=O)O.OCCN(Cc1ccncc1)CC1(c2ccc(Cl)cc2)CC1` | - | - | 20.26 | - |
| `COc1ccc(CN2CCn3cc(CN4CCCCC4)nc3C2)cc1.O=C(O)C(F)(F)F.O=C(O)C(F)(F)F` | - | - | 8.638 | - |
| `O=C(NCc1ccccn1)Nc1ccc2[nH]nnc2c1` | -1.756 | -3.089 | 23.78 | 21.01 |
| `COCCOCC(=O)NCCCOC1CCCc2ccccc21` (stereo not drawn) | 11.72 | 6.638 | 13.54 | 18.97 |
| `CCC(CO)N(CC=C(C)C)Cc1ccsc1` (stereo not drawn) | -12.03 | 9.504 | 1.531 | 4 |
| `Cc1ccc(C(=O)NCCNc2ncccc2C#N)c(=O)[nH]1` | 9.909 | 5.007 | -4.202 | -18.75 |
| `COc1ccccc1C1(CNc2ccc(C(=O)N(C)C)cn2)CC1` | 11.25 | - | 5.373 | 14.17 |
| `Cc1nc(CN2CCOC(CNc3cccnn3)C2)cs1` (stereo not drawn) | 4.156 | 9.609 | 19.39 | 28.57 |
| `O=C(c1cccnc1)N1CCN(CC2CC2)c2ncccc2C1` | -1.631 | 6.516 | 14.27 | -10.26 |
| `COc1ccccc1CNCCc1cccc(C(N)=O)c1` | -5.309 | -2.381 | 6.511 | 8.036 |
| `CC(C)N1CCC(CNC(=O)CCc2cc(F)ccc2F)C1` (stereo not drawn) | -7.961 | 0.9901 | 22.74 | 18 |
| `c1cc(CN2C[C@@H]3OCCN(CC4CCCO4)[C@@H]3C2)cs1` (stereo partly drawn) | 18.03 | 2.231 | - | 11.93 |
| `CC(=O)NC1CCN(c2cc(-c3ccccc3)nc3c(C)c(C)nn23)C1` (stereo not drawn) | -20.62 | 3.03 | -10.66 | 9.677 |
| `CSCCNC(=O)c1coc(COc2ccc3sc(C)nc3c2)n1` | -8.302 | 0.3619 | 13.64 | 5.6 |
| `C[C@@H]1CN(C(=O)c2c[nH]c(=O)c(Cl)c2)CC[C@@]1(O)C1CCOCC1` | -3.521 | 4.704 | 17.32 | 12 |
| `NC(=O)NC(=O)CCN1CCN(c2nccs2)CC1` | -17.77 | -2.273 | -18.09 | 12.5 |
| `COc1ccc2c(c1)CCCN2Cc1nc2c(cnn2C)c(=O)[nH]1` | -29.83 | -5.398 | 23.73 | 19.1 |
| `CCn1ccnc1CN1CCN(CC(=O)NC(=O)NC2CC2)CC1` | 15.52 | -0.7979 | 22.75 | 21.6 |
| `CCn1cnnc1CNC(=O)NC(c1cccs1)C1CCCC1` (stereo not drawn) | -20.93 | 7.955 | -42.39 | 0 |
| `Cc1nc2ccnn2c(C)c1CCC(=O)N1CCN2CCCCC2C1` (stereo not drawn) | -10.18 | 1.956 | 11.28 | 11.4 |
| `CC(C)n1nc(CN2CCCC2=O)c2c1CN(C(=O)c1ccno1)C2` | -14.52 | -0.9901 | 11.61 | 2.703 |
| `Cc1cccc(C(=O)NC(C(=O)NCc2ccc(O)nc2)C(C)C)c1` (stereo not drawn) | 5.702 | 2.184 | 8.966 | 16.67 |
| `COc1c(C)cnc(CN2CCCC2Cn2nc(C)nc2C)c1C` (stereo not drawn) | -12.99 | 0.5249 | 8.739 | -11.86 |
| `COCC(=O)N1CCN(Cc2cc(F)cc(Br)c2)CC1` | -19.42 | 0.1266 | 9.808 | 12.5 |
| `Cc1cccc(OCC2CCCN(C(=O)CCn3ccccc3=O)C2)c1` (stereo not drawn) | 3.541 | 1.794 | -1.494 | 18.03 |
| `CC(C)C1CN(C(=O)c2ccc(Cl)cn2)CCCN1CC1CC1` (stereo not drawn) | -15.16 | 2.836 | 22.14 | 12.9 |
| `Cc1nn(C)c(C)c1C1CCCN1Cc1cccc(C(=O)N(C)C)c1` (stereo not drawn) | -1.878 | 6.17 | 38.19 | 12.36 |
| `[H][C@@]12C[C@@H](c3nnc(C4CC4)o3)O[C@]1([H])CN(C(=O)c1ccc(C)s1)C2` | - | - | 14.93 | - |
| `CCC(C#N)NC(=O)CCCOc1cccc(C(C)=O)c1` (stereo not drawn) | -0.03235 | 1.341 | 3.677 | -1807 |
| `Cc1ccccc1-n1c(O)cc(C)c(C#N)c1=O` | 0.7382 | 4.509 | 9.802 | 33.93 |
| `CCOC(=O)CN1C[C@@H]2OCCN(c3ncc(F)cn3)[C@@H]2C1` | -5.483 | -6.42 | - | -2.778 |
| `COc1ncccc1C(=O)N(C)Cc1nc(-c2ccccn2)no1` | -7.586 | 15.03 | -5.649 | 19.3 |
| `O=C(N1CCOCC1)N1CCN(c2ccc(Cl)nn2)C(=O)C1` | -14.74 | 0.7895 | 1.635 | -2.759 |
| `COc1ccc(CNc2c(C)nn(C(C)C)c2C)cc1OC.Cl` | - | - | -0.3237 | - |
| `CC(=O)N1[C@H](Cn2cncn2)C[C@@H]2CN(S(C)(=O)=O)CC[C@@H]21` | -1.753 | -0.9091 | - | -12.26 |
| `Cl.Cl.O=C(NC[C@H]1OC[C@@H](NC2CCNCC2)[C@@H]1O)C1CCCC1` | - | - | 10.7 | - |
| `Cc1nc(-c2ccc(CO)cc2)cc(C2CCNCC2)n1` | -13.12 | -8.221 | - | 11.35 |
| `CN(C)C1(C(=O)NC2CCC(Oc3ccccc3C#N)CC2)CCC1` (stereo not drawn) | -2.704 | -1.08 | -0.08323 | 2.857 |

The first 7 entries again:

compound	A	B	C	D
CCc1nc(CNC(C)c2cccc(N3CCCC3=O)c2)cs1.Cl (stereo not drawn)	-	-	13.2	-
O=C(C1CCOCC1)N1CC[C@@H]2[C@H]1CCC(=O)N2c1ccccc1	-3.168	7.943	-	23.68
Cc1cccc(NC2CCN(C(=O)Nc3cccc4[nH]ccc34)CC2)n1	-0.6682	0.5141	40.33	12.36
Cc1nc2c(C(=O)O)cccc2n1-c1ccc(C(=O)N2CCCC2)o1	-1.639	-2.675	16.92	29.03
Cl.NCc1ccc(OC(F)F)cc1OC(F)F	-	-	-8.269	-
Cc1cc(CNC2(c3ccccc3F)CC2)no1	5.617	7.589	-20.5	-1.042
CCn1nc(C)c(NC(=O)CN2CC[C@H](CO)[C@@H](O)C2)c1C	-7.519	12.32	10.48	13.11